These are yes or no findings as the source states them, for the method shown. In cells and extracts the contact can be indirect.

Amino acid sequences for entries named in this document (tags omitted). A change or cut given only in a name is not applied to a line headed by its entry.
UniProt Q9VJY7: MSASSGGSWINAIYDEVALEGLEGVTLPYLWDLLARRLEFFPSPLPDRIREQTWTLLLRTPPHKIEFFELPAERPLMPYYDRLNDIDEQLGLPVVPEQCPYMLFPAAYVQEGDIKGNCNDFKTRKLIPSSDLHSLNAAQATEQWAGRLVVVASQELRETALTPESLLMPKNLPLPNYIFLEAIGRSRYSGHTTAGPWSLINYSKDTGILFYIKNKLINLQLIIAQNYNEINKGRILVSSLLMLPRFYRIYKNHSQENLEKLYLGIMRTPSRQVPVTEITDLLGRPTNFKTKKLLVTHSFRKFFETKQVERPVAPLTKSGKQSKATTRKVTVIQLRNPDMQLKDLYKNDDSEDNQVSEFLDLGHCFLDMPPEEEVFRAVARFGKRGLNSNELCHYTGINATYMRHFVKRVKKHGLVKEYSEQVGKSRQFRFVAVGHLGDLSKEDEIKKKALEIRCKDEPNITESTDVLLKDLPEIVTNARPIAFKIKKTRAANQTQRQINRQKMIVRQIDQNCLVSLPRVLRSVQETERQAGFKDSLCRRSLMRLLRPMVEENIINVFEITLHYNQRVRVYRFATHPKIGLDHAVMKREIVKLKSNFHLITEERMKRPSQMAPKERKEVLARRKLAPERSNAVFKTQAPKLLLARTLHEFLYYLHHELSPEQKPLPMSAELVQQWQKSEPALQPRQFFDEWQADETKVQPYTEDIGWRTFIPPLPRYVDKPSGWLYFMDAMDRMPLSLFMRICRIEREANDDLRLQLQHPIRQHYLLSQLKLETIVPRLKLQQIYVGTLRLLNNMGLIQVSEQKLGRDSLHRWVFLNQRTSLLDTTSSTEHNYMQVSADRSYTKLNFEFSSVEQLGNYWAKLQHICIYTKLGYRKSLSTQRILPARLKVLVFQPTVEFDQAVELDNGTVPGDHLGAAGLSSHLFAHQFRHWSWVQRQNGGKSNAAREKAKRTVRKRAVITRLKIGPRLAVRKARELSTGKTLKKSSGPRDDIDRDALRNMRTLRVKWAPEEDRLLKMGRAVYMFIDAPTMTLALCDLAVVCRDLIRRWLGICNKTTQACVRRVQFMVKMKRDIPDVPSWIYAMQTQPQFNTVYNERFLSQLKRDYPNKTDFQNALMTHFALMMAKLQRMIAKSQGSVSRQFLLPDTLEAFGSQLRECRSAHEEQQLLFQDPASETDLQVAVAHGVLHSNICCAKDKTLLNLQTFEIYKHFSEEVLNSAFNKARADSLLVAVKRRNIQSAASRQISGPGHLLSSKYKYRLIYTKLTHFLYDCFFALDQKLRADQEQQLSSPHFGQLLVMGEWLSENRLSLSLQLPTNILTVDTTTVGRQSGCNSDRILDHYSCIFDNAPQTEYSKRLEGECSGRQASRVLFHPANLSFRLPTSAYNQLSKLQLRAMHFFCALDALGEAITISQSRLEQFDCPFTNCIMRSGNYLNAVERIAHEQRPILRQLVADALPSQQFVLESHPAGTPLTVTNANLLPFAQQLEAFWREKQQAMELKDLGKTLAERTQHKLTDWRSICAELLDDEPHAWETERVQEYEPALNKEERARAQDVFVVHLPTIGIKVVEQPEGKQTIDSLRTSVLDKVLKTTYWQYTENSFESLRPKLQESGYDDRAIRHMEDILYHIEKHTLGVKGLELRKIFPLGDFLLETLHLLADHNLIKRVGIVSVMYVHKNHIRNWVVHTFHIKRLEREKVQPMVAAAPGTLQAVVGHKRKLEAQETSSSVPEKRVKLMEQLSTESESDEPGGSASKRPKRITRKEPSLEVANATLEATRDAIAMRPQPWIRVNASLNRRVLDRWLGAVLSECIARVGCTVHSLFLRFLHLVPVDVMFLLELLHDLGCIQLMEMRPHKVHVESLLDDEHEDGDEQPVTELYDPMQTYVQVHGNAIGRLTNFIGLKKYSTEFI

The target in the test is dTFIIIC220 (CG7099), predicted B box binding subunit of Drosophila TFIIIC (D. melanogaster (endogenous in Kc167)) (UniProt Q9VJY7). Nature of the test: co-IP; Kc167 lysate in PBSMT (2.5 mM MgCl2, 3 mM KCl, 0.3% Triton X-100 in PBS) at 4°C; rabbit polyclonal anti-dTFIIIC220 or pre-immune serum on Protein A Sepharose, 1 h; bound proteins eluted with 1 M MgCl2; western blot. On the technique in general: A western blot detects proteins with antibodies after separation by electrophoresis.

B1: Drosophila homolog of CTCF (dCTCF) (protein, UniProt Q9VS55 1-818)
chain: MPRRTKKDEDPEDLQTFLNNFHKEIEGNSDEKVVNTILEAISAEAIDLDENGAEAGGSKPMEEAEADLDHAEEAEEEEEDDEDKYFIDDEGNCYIKTTPKKQKELQKKLKQAAAKPGKATRSVVSTATNKSINLRPAKSTPKATTSKPPPEPKAISVRPARAAAAKAKQSAMPPPPALVVKVPAPRGRPRKNPVIPKPEPMDLERELEELVDEPDISSMVTELSDYTVDEAAVEAATATLTPNEAEVYEFEDNATTEDENADKKDVDFVLSNKEVKLKTASSTSQNSNASGHKYSCPHCPYTASKKFLITRHSRSHDVEPSFKCSICERSFRSNVGLQNHINTHMGNKPHKCKLCESAFTTSGELVRHTRYKHTKEKPHKCTECTYASVELTKLRRHMTCHTGERPYQCPHCTYASQDMFKLKRHMVIHTGEKKYQCDICKSRFTQSNSLKAHKLIHSVVDKPVFQCNYCPTTCGRKADLRVHIKHMHTSDVPMTCRRCGQQLPDRYQYKLHVKSHEGEKCYSCKLCSYASVTQRHLASHMLIHLDEKPFHCDQCPQAFRQRQLLRRHMNLVHNEEYQPPEPREKLHKCPSCPREFTHKGNLMRHMETHDDSANAREKRRRLKLGRNVRLQKDGTVITLIKDQYVDMDRDQEENEEDDNPESYDLAEIEPENSEAEDADDDVETIVSDPIRQRIKPAPIIINKQARLAASEKQPMIINQRLRSQRGTKTFHIKEEPDNSDFTVEWQGDDGEVMVVELVNGDEEVLVKHEPSANSKISAKNCFGFEDDDDYEEYGDGENEVDGASQEFLQLMDMIEQDS
On to B1, for which the binding entry is “no binding”.

B2: Suppressor of hairy-wing (Su(Hw)) (protein, UniProt P08970 1-941)
chain: MSASKEGKEKKGKLLGVENISPPKDKRPATRMKLLNDVGAGEDSEASTTTTTSRTPSNKQEKRGSVAGSRIKILNEEILGTPKTEKRGATKSTAPAASTVKILNEKKTPSATVTAVETTKIKTSPSKRKKMEHYVLQAVKSENTKADTTVTVVTEEDDTIDFILADDEEVVPGRIENNNGQEIVVTEDDEDLGEDGDEDGEDSSGKGNSSQTKIKEIVEHVCGKCYKTFRRVQSLKKHLEFCRYDSGYHLRKADMLKNLEKIEKDAVVMEKKDICFCCSESYDTFHLGHINCPDCPKSFKTQTSYERHIFITHSEFSDFPCSICNANLRSEALLALHEEQHKSRGKPYACKICGKDFTRSYHLKRHQKYSSCSSNETDTMSCKVCDRVFYRLDNLRSHLKQHLGTQVVKKPEYMCHTCKNCFYSLSTLNIHIRTHTGEKPFDCDLCDKKFSALVALKKHRRYHTGEKPYSCTVCNQAFAVKEVLNRHMKRHTGERPHKCDECGKSFIQATQLRTHSKTHIRPFPCEQCDEKFKTEKQLERHVKTHSRTKRPVFSCAECKRNFRTPALLKEHMDEGKHSPKQQRSSMRSAVKIMERTDCAICDKNFDSSDTLRRHIRTVHECDPDDIFGVEPHPSKRAKKDIESEEVVPVALNTSAGSLISSQTDGNGVVVREFLVDEGDGAAQTITLENETYTILPLDGAIEGEQLTDEAGVKPEAKKEEAQVSPVVKKEQRKSLAASLAAAIADNLEESCSEDDFSGEILTEEDIKLKENVGKLIDMLVDPPILKKYGWPNAPEETVLCKVIENCGHDLTKGGENYAELDYGSRMREYCKLLFTVVIHNDSIKSLLNNFPIDDVIEYVLGDEDQDEGGLDKDNESHSGDEEAVSVTGETKTNEIREKPEKKEVSAKSEKKEIVGKAVDKDNSEEVVRENKKKPVGEQEKA
For the molecule B2, the binding result is reported as “no binding”.
